Assay results: patent EP0018019A1, “Antimicrobial water-soluble compound which contains a rare earth metal cation, its application in oral compositions and method for controlling microorganisms therewith” (priority 1979, dated 1980)
Counter-ions that a name gives are not always drawn. At least one compound was matched to its structure with a doubt left.

Assay: Antimicrobial activity of rare earth/surfactant combinations
Type: cell-based
Details: combined with lanthanum
Description: The data are from standard tests for measuring Minimum Bactericidal Concentrations (using a 10-minute contact with the test agent at 37°C; representing at least 3 log unit reduction in viable cell count).

Compound: CCCCCCCC/C=C\CCCCCCCCOS(=O)(=O)O [oleyl sulfate]
- antimicrobial activity: excellent
